Drawing on PMC8887482, this text covers binding for four molecules.

Protein sequences, listed by entry. Tags and fused reporters are not part of them.
UniProt O55170: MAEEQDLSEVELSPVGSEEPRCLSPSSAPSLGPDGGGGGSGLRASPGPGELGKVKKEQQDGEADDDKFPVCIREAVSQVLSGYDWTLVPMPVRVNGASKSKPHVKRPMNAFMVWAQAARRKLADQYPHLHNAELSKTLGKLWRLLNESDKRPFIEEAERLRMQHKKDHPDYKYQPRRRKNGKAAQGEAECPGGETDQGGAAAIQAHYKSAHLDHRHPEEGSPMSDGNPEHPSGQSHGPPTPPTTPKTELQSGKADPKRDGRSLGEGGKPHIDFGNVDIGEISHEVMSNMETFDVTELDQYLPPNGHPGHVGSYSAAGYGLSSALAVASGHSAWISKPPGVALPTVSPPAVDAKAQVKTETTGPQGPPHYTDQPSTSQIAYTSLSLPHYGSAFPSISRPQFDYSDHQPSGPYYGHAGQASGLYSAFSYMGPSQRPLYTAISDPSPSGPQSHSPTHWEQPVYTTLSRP

For experiment [1], the target named is T1, Zfp276 (full-length murine Zfp276, pCMV5 expression plasmid) (mouse) (UniProt Q8CE64).
T1 sequence: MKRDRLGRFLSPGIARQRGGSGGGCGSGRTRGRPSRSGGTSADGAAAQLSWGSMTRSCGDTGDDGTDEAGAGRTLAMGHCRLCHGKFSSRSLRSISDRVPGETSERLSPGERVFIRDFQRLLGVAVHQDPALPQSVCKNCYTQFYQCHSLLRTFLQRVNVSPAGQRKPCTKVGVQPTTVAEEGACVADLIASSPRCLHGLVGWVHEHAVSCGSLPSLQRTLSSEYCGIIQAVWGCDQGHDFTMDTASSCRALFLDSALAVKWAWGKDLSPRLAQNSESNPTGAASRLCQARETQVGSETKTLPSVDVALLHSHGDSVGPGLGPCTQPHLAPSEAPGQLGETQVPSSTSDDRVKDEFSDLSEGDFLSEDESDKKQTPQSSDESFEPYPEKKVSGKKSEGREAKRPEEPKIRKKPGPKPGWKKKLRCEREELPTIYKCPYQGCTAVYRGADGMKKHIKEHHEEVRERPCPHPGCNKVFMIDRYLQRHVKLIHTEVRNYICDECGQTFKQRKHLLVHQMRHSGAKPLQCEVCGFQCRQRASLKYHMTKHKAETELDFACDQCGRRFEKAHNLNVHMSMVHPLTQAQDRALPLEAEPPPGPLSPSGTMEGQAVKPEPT
The experiment is described as follows: co-IP; extracts from HEK293T cells transfected with Sox10 and Zfp276 expression vectors; precipitation with rabbit anti-Zfp276 or rabbit anti-Sox10 antiserum and Protein A-Sepharose; western blot. A general note: In western blotting, separated proteins are transferred to a membrane and probed.

For experiment [2], the target named is T2, EGFP-Cterm (EGFP fused to the C-terminal fragment of Zfp276, amino acids 409 to 614) (mouse) (UniProt Q8CE64).
T2 sequence: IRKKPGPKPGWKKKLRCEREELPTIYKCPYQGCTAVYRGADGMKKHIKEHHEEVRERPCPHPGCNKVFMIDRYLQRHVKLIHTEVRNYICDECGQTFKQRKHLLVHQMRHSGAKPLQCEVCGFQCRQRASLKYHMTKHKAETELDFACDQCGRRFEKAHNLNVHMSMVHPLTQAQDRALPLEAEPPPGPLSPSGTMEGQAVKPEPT
The experiment is described as follows: co-IP; HEK293T lysate containing myc-Zeb2 co-incubated with lysates of EGFP-tagged Zfp276 or its fragments together with anti-GFP antibody; myc-Zeb2 detected with anti-myc antibody.

The target of experiment [3] is T3, myc-Zeb2 (pCMV5-myc-Zeb2), in CG4 cells (UniProt Q9R0G7).
T3 sequence: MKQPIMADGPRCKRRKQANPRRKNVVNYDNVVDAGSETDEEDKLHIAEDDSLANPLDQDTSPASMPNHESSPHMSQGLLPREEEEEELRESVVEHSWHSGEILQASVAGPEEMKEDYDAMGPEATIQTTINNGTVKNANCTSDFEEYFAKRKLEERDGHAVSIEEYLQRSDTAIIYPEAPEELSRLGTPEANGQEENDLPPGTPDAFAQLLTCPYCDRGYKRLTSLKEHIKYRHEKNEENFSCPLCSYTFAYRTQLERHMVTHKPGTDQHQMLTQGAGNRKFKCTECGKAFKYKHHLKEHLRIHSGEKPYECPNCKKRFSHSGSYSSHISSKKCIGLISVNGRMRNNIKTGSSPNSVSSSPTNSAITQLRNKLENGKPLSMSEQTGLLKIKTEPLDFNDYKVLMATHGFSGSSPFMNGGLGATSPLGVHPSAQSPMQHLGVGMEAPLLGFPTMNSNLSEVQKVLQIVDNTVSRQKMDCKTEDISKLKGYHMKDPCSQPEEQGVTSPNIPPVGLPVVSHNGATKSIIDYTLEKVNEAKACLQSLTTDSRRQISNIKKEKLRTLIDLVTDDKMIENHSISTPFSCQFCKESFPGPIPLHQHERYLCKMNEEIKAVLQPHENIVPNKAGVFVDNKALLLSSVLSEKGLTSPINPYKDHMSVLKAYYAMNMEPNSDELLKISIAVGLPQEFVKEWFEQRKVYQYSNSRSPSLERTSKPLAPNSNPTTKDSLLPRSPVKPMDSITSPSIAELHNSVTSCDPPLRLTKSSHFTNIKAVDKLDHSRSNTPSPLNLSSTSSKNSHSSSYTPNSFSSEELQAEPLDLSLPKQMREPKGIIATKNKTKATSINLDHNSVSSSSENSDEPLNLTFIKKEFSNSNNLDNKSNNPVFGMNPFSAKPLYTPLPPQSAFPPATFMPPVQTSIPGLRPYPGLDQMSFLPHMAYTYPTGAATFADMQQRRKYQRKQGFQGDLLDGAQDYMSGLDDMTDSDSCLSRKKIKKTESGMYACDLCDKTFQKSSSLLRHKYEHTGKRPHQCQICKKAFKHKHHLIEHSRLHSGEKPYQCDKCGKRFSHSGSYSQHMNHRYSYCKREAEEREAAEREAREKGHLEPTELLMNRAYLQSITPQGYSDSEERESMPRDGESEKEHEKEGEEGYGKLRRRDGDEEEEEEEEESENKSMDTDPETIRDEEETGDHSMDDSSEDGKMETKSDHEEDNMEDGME
The experiment is described as follows: proximity ligation; CG4 cells transfected with pCMV5-myc-Zeb2, 3 days under differentiating conditions, fixed with 2% paraformaldehyde; Duolink kit with mouse anti-myc antibody and anti-Zfp276 antiserum; single antibodies as controls.

Experiment [4] concerns the target Sox10 (pCMV5 expression vector) (UniProt O55170). The experiment is described as follows: co-IP; extracts from HEK293T cells transfected with Sox10 and Zfp276 expression vectors; precipitation with rabbit anti-Zfp276 or rabbit anti-Sox10 antiserum and Protein A-Sepharose; western blot.
The target of experiment [5] is T4, myc-Zeb2 (Zeb2/Sip1 with N-terminal 6xmyc tag, pCMV5), in HEK293T (UniProt Q9R0G7).
T4 sequence: T3 sequence
The experiment is described as follows: co-IP; HEK293T lysates overexpressing myc-Zeb2, Zfp276 or a combination; with or without DNaseI; precipitation with anti-myc antibody, Zfp276 detected with anti-Zfp276 antiserum.

Results are given in words; binding and its absence hold for the method and conditions named. In cells and extracts the contact can be indirect. Some results given as binding are weak or reduced against the parent protein; the word gives no strength. For some assays here: Where a sequence is shown, tags or fusion partners need not be part of it.

As to “Sox10 (pCMV5 expression vector) (from UniProt O55170 1-466)”, the binding result in experiment [1] is recorded as “no binding”.

B1: myc-Zeb2 (Zeb2/Sip1 with N-terminal 6xmyc tag, pCMV5), in HEK293T (protein, UniProt Q9R0G7 1-1215)
chain: T3 sequence
In the case of B1, the binding result in experiment [2] was “binds”.

B2: endogenous Zfp276 of differentiated CG4 cells (protein, UniProt F1LN08 1-609)
chain: MKRDRLGRFLSPGIARQRGSSGSSCGSGRTRGRPSRTGGSSADGAAPQLSWGSTRSCGDTGEDGTDEAGAGRTLTMGHCRLCHGKFSSRSLRSISERVPGETSERLSPGERVFIRDFQRLLGVAVHQDPALPQFVCKNCYTQFYQCHSLLRSFLQRVNVSPAGQRKPCTKVGVQPPTVAEEGACMADLITSSPQCLHGLVGWVHEHAVNCGCLPSLQRTLSSEYCGVIQAVWGCDQGHDFTMDTDSGCRALLLDSALAVKWGKELAPRLAQSSASDPTGAASQLCQARETQVGSETKTLPSVDVALLHSHGDSVGPGLSPYIQPNLAPSEAPGQLGEKQVPSSTSDDRVKDEFSDLSEGDVLSEDDSDKKQTPQSSDESFEPYPEKKVSGKKSEGKEAKRPEEPKIRKKPGPKPGWKKKLRCEREELPTIYKCPYQGCTAVYRGADGMKKHIKEHHEEVRERPCPHPGCNKVFMIDRYLQRHVKLIHTEVRNYICDECGQTFKQRKHLLVHQMRHSGAKPLQCEVCGFQCRQRASLKYHMTKHKAETELDFACDQCGRRFEKAHNLNVHMSMVHPLTQTQALPLEAEPPPGPLSLAGTVEGQAVKPEPT
As to B2, in experiment [3], the binding result was “binds”.

B3: Zfp276 (full-length murine Zfp276, pCMV5 expression plasmid) (protein, UniProt Q8CE64-1 1-614)
chain: T1 sequence
Consider B3, for which the binding entry is given as “no binding” in experiment [4] and “binds” in experiment [5].
